Laboratory results reported in publication PMC8593015 (Scientific Reports, 2021).
Values joined by “and” are separate entries in the source; they are usually repeats but may differ in a detail not shown here. Equal entries are not always repeated.

Target: T1, M. tb EgtD (Mycobacterium tuberculosis, UniProt P9WN47)
T1 construct: thioredoxin (N, cleaved yes); polyhistidine (N, cleaved yes); made in house; host or cells: E. coli (T7 cells), pET32-derived vector
T1 sequence (P9WN47 1-321): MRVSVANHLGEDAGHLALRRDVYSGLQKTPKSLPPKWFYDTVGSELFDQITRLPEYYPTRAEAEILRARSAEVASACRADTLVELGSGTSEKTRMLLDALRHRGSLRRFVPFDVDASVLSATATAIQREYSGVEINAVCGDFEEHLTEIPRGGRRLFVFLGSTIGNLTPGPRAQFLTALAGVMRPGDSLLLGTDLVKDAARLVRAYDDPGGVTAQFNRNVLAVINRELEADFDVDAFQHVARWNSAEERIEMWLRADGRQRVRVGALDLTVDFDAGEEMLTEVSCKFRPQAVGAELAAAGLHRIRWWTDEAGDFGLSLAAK
Assay: biochemical

How did the EC50 turn out when `Cc1ccc(NC(=O)c2ccc(CN3CCN(C)CC3)cc2)cc1Nc1nccc(-c2cccnc2)n1` [Imatinib] was run?
The EC50 was < 20 µM and 8.8 µM.
